Taken from: PubChem BioAssay AID1224826 (NIAID, 2016)
The whole screen tested about 17,000 reagents; shown is a random part of them. Over the whole deposit, about 1,110 (6.6%) got an active call. 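Active means lowered or raised reporter signal; replicate intensities are raw and not normalised per plate.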 Unmarked entries are inactive. Reagents against one gene are numbered here. A reagent listed more than once was tested more than once; the source does not tell the runs apart. Not all columns of the deposit are shown.

Assay: 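Genes that change LPS-induced Tnf promoter activity in mouse macrophages when knocked down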 (primary screen)
Cells: RAW264.7 G9 macrophages from mouse bearing reporters for p65 (GFP) and the Tnf promoter (mCherry)
Reagents: siRNA pool against mouse genes, 100 nM
Time to read-out: 16 h of LPS stimulation, after 2 days of siRNA transfection
Treatment: bacterial lipopolysaccharide (Salmonella minnesota R595), 10 ng/ml
Read-out: 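Nuclear mCherry signal of the Tnf promoter reporter measured by imaging after background removal, scaled to each plate median and turned into robust z-scores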
Scale: Tnf reporter robust z-score: higher = stronger Tnf promoter reporter signal after LPS; Tnf reporter intensity: higher = stronger Tnf promoter reporter signal
Active means: 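a well counts as active at a score of -1.3 or below (Tlr4 knock-down control median) or above 3 (raised signal); controls and wells holding fewer than 50 cells are excluded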
Meaning of the calls: active = Tnf reporter clearly lowered or raised; inactive = no clear change in Tnf reporter

gene,reagent,Tnf reporter robust z-score,fewer than 50 cells in well,"Tnf reporter intensity, replicate 1"
Arsb (arylsulfatase B),1,-1.25,enough cells in well,95.5
Arsb (arylsulfatase B),2,1.26,enough cells in well,353
Bcl2 (B cell leukemia/lymphoma 2),1,-0.69,enough cells in well,114
Tmem179b (transmembrane protein 179B),1,,fewer than 50 cells per well; well left out of calls,303
"Hps6 (HPS6, biogenesis of lysosomal organelles complex 2 subunit 3)",1,0.85,enough cells in well,277
Bbs9 (Bardet-Biedl syndrome 9),1,2.57,enough cells in well,247
Tatdn1 (TatD DNase domain containing 1),1,-0.38,enough cells in well,90.7
Spmip5 (sperm microtubule inner protein 5),1,-0.22,enough cells in well,176
Lrrtm3 (leucine rich repeat transmembrane neuronal 3),1,0.34,enough cells in well,232
Syt1 (synaptotagmin I),1,-0.36,enough cells in well,249
Nwd1 (NACHT and WD repeat domain containing 1),1,-0.31,enough cells in well,142
Katnal1 (katanin p60 subunit A-like 1),1,2.01,enough cells in well,213
Or51ab3 (olfactory receptor family 51 subfamily AB member 3),1,0.53,enough cells in well,71.1
"Cyp2c65 (cytochrome P450, family 2, subfamily c, polypeptide 65)",1,-1.61 (active),enough cells in well,113
Slc12a9,1,1.02,enough cells in well,147
Slc12a9,1,,fewer than 50 cells per well; well left out of calls,85.9

Continued; the last 3 above are carried over.
gene,reagent,Tnf reporter robust z-score,fewer than 50 cells in well,"Tnf reporter intensity, replicate 1"
"Cyp2c65 (cytochrome P450, family 2, subfamily c, polypeptide 65)",1,-1.61 (active),enough cells in well,113
Slc12a9,1,1.02,enough cells in well,147
Slc12a9,1,,fewer than 50 cells per well; well left out of calls,85.9
Pef1 (penta-EF hand domain containing 1),1,0.29,enough cells in well,226
Dpp10 (dipeptidylpeptidase 10),1,0.35,enough cells in well,192
Smap1 (small ArfGAP 1),1,,fewer than 50 cells per well; well left out of calls,34.7
Fitm2 (fat storage-inducing transmembrane protein 2),1,3.34 (active),enough cells in well,440
Spaca1 (sperm acrosome associated 1),1,,fewer than 50 cells per well; well left out of calls,119
Kcnh8,1,1.15,enough cells in well,329
Sytl5 (synaptotagmin-like 5),1,-1.79 (active),enough cells in well,47.6
"Edem1 (ER degradation enhancer, mannosidase alpha-like 1)",1,1.6,enough cells in well,338
